Assay results as given in the supplement of paper PMC7125110.
± gives the standard error. Many of these values have a large error.

B1: glmS ribozyme (parent)
chain: AUAAAAGCGCCAGAACUACAGAAAUGUAGUUGACGAGGAGGAGGUUUAUCGAAUUUUCGGCGGAUGCCUCCAAA

Variants of: B1
Test: KM; higher = weaker cofactor use; RNA array
Conditions: with glucosamine-6-phosphate
Outline: (§1)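 kcat and KM were obtained from weighted Michaelis–Menten fits across concentrations of kobs values. Those came from one- or two-exponential decay fits to per-tile medians normalised to baseline and to non-cleaving reference variants. The variants were barcoded ribozymes transcribed in situ by E. coli RNA polymerase on sequenced MiSeq chips and tracked through a hybridised Cy3 probe at 37 °C, with 40 μM to 10 mM glucosamine-6-phosphate in HEPES/KCl/Mg(OAc)2 buffer flowed in.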
U30C U56G showed a KM of 2110 ± 1100 µM. With U30G A42U C67G the KM was 717 ± 410 µM. U30G A52G was tested, and the KM was 2430 ± 620 µM. With U30G A53U the KM was 1690 ± 860 µM. For U31A A39U, the KM was 3370 ± 1000 µM. Variant U31C A53G C70U has a KM of 620 ± 200 µM. U31C G40C gave a KM of 943 ± 550 µM. Work on U31C G41C yielded a KM of 7090 ± 5200 µM. U31C U55C showed a KM of 3750 ± 300 µM. U31G G40U showed a KM of 2730 ± 500 µM. G32A A52G showed a KM of 1760 ± 480 µM. G32A C58A C68U gave a KM of 6330 ± 3300 µM. G32A G60C gave a KM of 183 ± 55 µM. G32A G66A was tested, and the KM was 6290 ± 1700 µM. With G32A U54C the KM was 5430 ± 2900 µM. G32U A53C gave a KM of 2210 ± 2100 µM. Work on G32U C71G yielded a KM of 741 ± 280 µM. Work on A33U G41U yielded a KM of 361 ± 290 µM. A33U G66A gave a KM of 2790 ± 180 µM. In the case of C34A A36C U45A, the KM is reported as 2250 ± 2200 µM. C34A C67G showed a KM of 10900 ± 9500 µM. For C34A G51C, the KM was 246 ± 210 µM. Work on C34U A42U yielded a KM of 70.4 ± 29 µM. G35A G38A showed a KM of 26.3 ± 18 µM. In the case of A36U U55A C61A, the KM is reported as 57.8 ± 29 µM. For G37A C67G, the KM was 744 ± 550 µM. Variant G37A U47G has a KM of 1250 ± 600 µM. Work on G37C A42G yielded a KM of 1800 ± 940 µM. G37C G38U was tested, and the KM was 103 ± 65 µM. With G38A G62U the KM was 14.5 ± 8.2 µM. In the case of G38A U54A, the KM is reported as 239 ± 140 µM. G38C C71U was tested, and the KM was 26.8 ± 19 µM. In the case of A39C U47G, the KM is reported as 2130 ± 1600 µM. With A39G A52U the KM was 13000 ± 3500 µM. Variant A39G G66A has a KM of 2510 ± 1600 µM. Variant A39G G66C has a KM of 3270 ± 2000 µM. For A39U G66C, the KM was 6420 ± 2800 µM. Variant A39U U45G has a KM of 2650 ± 300 µM. G40A C58U gave a KM of 25300 ± 14000 µM. Work on G40A G41A yielded a KM of 486 ± 460 µM. G40A G41C gave a KM of 1010 ± 630 µM. G40A G66U gave a KM of 2050 ± 330 µM. Work on G40C A48U yielded a KM of 37600 ± 14000 µM. With G41A G66A the KM was 2930 ± 2100 µM. A42G C68G gave a KM of 429 ± 410 µM. Variant A42G U55C has a KM of 895 ± 430 µM. For A42U A48U A64U C68U, the KM was 11.3 ± 3.5 µM. Work on A42U C71U yielded a KM of 1320 ± 400 µM. Variant G43C C68A has a KM of 1040 ± 730 µM. G44A C67A gave a KM of 3330 ± 2100 µM. Variant U46A A64C has a KM of 788 ± 440 µM. U46A C71A showed a KM of 2930 ± 2200 µM. U46A U47C gave a KM of 2240 ± 840 µM. Variant U46C U47A has a KM of 2210 ± 1400 µM. U46G A52U was tested, and the KM was 12000 ± 1400 µM. U46G U65C showed a KM of 1730 ± 260 µM. U47A C67U gave a KM of 1910 ± 1000 µM. Work on U47A C71U yielded a KM of 285 ± 160 µM. U47A U55C gave a KM of 1940 ± 1100 µM. In the case of U47A U69A, the KM is reported as 36.8 ± 33 µM. U47C A52U showed a KM of 3930 ± 1200 µM. In the case of U47C U57A, the KM is reported as 39500 ± 11000 µM. U47C U69A was tested, and the KM was 1890 ± 1300 µM. U47G U65C gave a KM of 1420 ± 900 µM. A48C A53U gave a KM of 2410 ± 320 µM. Work on A48G C70A yielded a KM of 631 ± 490 µM. In the case of U49G A53U, the KM is reported as 4490 ± 760 µM. U49G C68U was tested, and the KM was 862 ± 360 µM. U49G U65G showed a KM of 6050 ± 1500 µM. With C50A U55G the KM was 754 ± 480 µM. In the case of C50G G62U U69G, the KM is reported as 49.5 ± 48 µM. G51A G60U showed a KM of 214 ± 190 µM. A52U C71A gave a KM of 1190 ± 670 µM. A52U G66U showed a KM of 726 ± 420 µM. A53C C58A gave a KM of 3200 ± 2400 µM. Variant A53C C71A has a KM of 1610 ± 520 µM. A53U C71G was tested, and the KM was 85.2 ± 54 µM.

Variants of: B1
Test: self-cleavage kobs at 160 uM GlcN6P; higher = faster cleavage; RNA array
Conditions: with glucosamine-6-phosphate
Outline: as §1
With U30C U56G the “self-cleavage kobs at 160 uM GlcN6P” value was 2.74e-05 ± 2e-05 s⁻¹. A42G C68G was tested, and the “self-cleavage kobs at 160 uM GlcN6P” value was 3.81e-05 ± 2e-05 s⁻¹. With A42U C71U the “self-cleavage kobs at 160 uM GlcN6P” value was 1.73e-05 ± 1.6e-05 s⁻¹.

Variants of: B1
Test: self-cleavage kobs at 2500 uM GlcN6P; higher = faster cleavage; RNA array
Conditions: with glucosamine-6-phosphate
Outline: as §1
For U31C G41C, the “self-cleavage kobs at 2500 uM GlcN6P” value was 1.22e-05 ± 1e-05 s⁻¹. In the case of G40C A48U, the “self-cleavage kobs at 2500 uM GlcN6P” value is reported as 1.46e-05 ± 1.1e-05 s⁻¹. For U46A A64C, the “self-cleavage kobs at 2500 uM GlcN6P” value was 3.16e-05 ± 2e-05 s⁻¹. U46G U65C was tested, and the “self-cleavage kobs at 2500 uM GlcN6P” value was 2.54e-05 ± 1.5e-05 s⁻¹.

Variants of: B1
Test: self-cleavage kobs at 10000 uM GlcN6P; higher = faster cleavage; RNA array
Conditions: with glucosamine-6-phosphate
Outline: as §1
For U31C G41C, the “self-cleavage kobs at 10000 uM GlcN6P” value was 2.88e-05 ± 1.7e-05 s⁻¹. In the case of A39G G66C, the “self-cleavage kobs at 10000 uM GlcN6P” value is reported as 0.0019 ± 0.001 s⁻¹. In the case of G40A C58U, the “self-cleavage kobs at 10000 uM GlcN6P” value is reported as 1.3e-05 ± 8.9e-06 s⁻¹. With U46A A64C the “self-cleavage kobs at 10000 uM GlcN6P” value was 3.67e-05 ± 2.5e-05 s⁻¹. In the case of C50A U55G, the “self-cleavage kobs at 10000 uM GlcN6P” value is reported as 2.17e-05 ± 1.2e-05 s⁻¹.

Variants of: B1
Test: self-cleavage kobs at 40 uM GlcN6P; higher = faster cleavage; RNA array
Conditions: with glucosamine-6-phosphate
Outline: as §1
For G32A G66A, the “self-cleavage kobs at 40 uM GlcN6P” value was 3e-05 ± 1.9e-05 s⁻¹. A39C U47G was tested, and the “self-cleavage kobs at 40 uM GlcN6P” value was 3.44e-05 ± 2.3e-05 s⁻¹. With U47A U69A the “self-cleavage kobs at 40 uM GlcN6P” value was 4.51e-05 ± 2.4e-05 s⁻¹. With U49G A53U the “self-cleavage kobs at 40 uM GlcN6P” value was 1.06e-05 ± 1e-05 s⁻¹.

Variants of: B1
Test: self-cleavage kobs at 640 uM GlcN6P; higher = faster cleavage; RNA array
Conditions: with glucosamine-6-phosphate
Outline: as §1
In the case of A53C C58A, the “self-cleavage kobs at 640 uM GlcN6P” value is reported as 2.32e-05 ± 1.5e-05 s⁻¹.
